These results are taken from the supplement of paper PMC11237882.

Some of the results follow. Values are worked out from sequencing counts and are noisy.

T1: Homer1 EVH1 domain
T1 chain: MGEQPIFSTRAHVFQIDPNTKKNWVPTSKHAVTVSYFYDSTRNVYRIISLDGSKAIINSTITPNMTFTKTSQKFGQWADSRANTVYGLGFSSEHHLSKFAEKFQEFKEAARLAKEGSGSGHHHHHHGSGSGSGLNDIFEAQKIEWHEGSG

For this assay, the target named is T1, Homer1 EVH1 domain. Kind of assay: enrichment score (AUC of log2 frequency ratio across FACS sorting rounds) (log2 AUC); higher = stronger enrichment for Homer1 EVH1 binding.
As to FIAMGVVGGVLGAVFNALNYWLTMFRIRYIHRPCLQ, the enrichment score is 1.27.

With IAGFLHYLFLACFFWMLVKAVILFLMVRNLKVVNYS, the enrichment score turned out to be 1.85.

Take WNIGLAEGIGIVVFVAGIFLLVVVFVLCRKMISRKK: the enrichment score was -1.19.

AKNPPGDSSLHWAAMALPALFSLIIGFAFGVLYWKN: the enrichment score worked out at 4.33.

For MGARKRSQPHTVTAERTQWRKLPGSAKICAFSALSL, the enrichment score was -1.49.

Regarding QIQEVREQRVTGVLIASLVGLSIVMGAVLRRIPLAV, the enrichment score was found to be 3.02.

Consider NKYFKSRRPLFTGGLIGGLFTYVLFWTFLYGMVHVY, for which the enrichment score is -1.34.

LYNGMASTSSWAALYFIALMTFGNYVLFNLLVAILV: the enrichment score amounted to 3.38.

Regarding MLFEGLDLVSALATLAACLVSVTLLLAVSQQLWQLR, the enrichment score stood at 3.69.

Turning to FGHFATEASGFSKIFPGITPYILTLGAFFWMPFLRE, the enrichment score stood at 0.78.

On to LKLDKGFIWSFMGPVAVIILINLVFYFQVLWILRSK, for which the enrichment score came to 0.828.

Consider MAAPALGLVCGRCPELGLVLLLLLLSLLCGAAGSQE, for which the enrichment score turned out to be 2.33.

As to AKPVIPTAAKRIDLYARALFPFCFLFFNVIYWSIYL, the enrichment score turned out to be 1.89.

As for MEPAAALHFSRPASLLLLFSLCALVSAQVTVVGPTD, the enrichment score was 1.99.

On to MALGACGLLLLLAVPGVSLRTLQPGCGRPQVSDAGG, for which the enrichment score came to 3.16.

ETFQTSSIKESTLIPPPPPFEQTFPSLQPGASTLQR: the enrichment score was 6.28.

For MSTKPDMIQKCLWLEILMGIFIAGTLSLDCNLLNVH, the enrichment score worked out at 0.58.

On to ALLSEVIQLMQYVIYGIASFFFLYGIILLAEGFYTT, for which the enrichment score was 4.5.

Regarding QARAAKLSEGSQPAEEEEDQETPSRNLRVRADRNLK, the enrichment score is -0.746.

Regarding LNDAYNWEFLIWETALLLFLLRLASLGSETNKKYSN, the enrichment score was 2.12.

Take IAPKSPLGLFIRKPFIKFICPTASYLTFLFLLLLAS: the enrichment score is 3.07.

In the case of VLTGTDSETLGRVAESGLPALLLQCLYLFFVFPLDK, the enrichment score was found to be 2.5.

Consider MRALLALCLLLGWLRWGPAGAQQSGEYCHGWVDVQG, for which the enrichment score is -0.292.

MSNNGADLTFGYISCFVAILLFGSNFVPLKKFDTGD: the enrichment score was found to be 1.29.

For FARLTVSEWLRLLPFLGVLALLGYLAVRPFLPKKKQ, the enrichment score is 1.28.

For KFKTSPYFPTTARKLISDFAIILSILIFCVIDALVG, the enrichment score was -1.

Turning to KDPITIVDVPAHLQNSWESYYLEILMVTGLLAYIMN, the enrichment score was 3.26.

MSKSCGNNLAAISVGISLLLLLVVCGIGCVWHWKHR: the enrichment score is -2.8.

VVTRALMITADILAGFGFLTLLLGLDCVKFLPDEPY: the enrichment score stood at 0.74.

As for SSFEDLLANNILRIFVWVIAFITCFGNLFVIGMRSF, the enrichment score is 3.59.

As to RKEFQKIAMATAIGFAIMGFIGFFVKLIHIPINNII, the enrichment score is -0.757.

Turning to PRNLFEQFHRAANLYFLFLVVLNWVPLVEAFQKEIT, the enrichment score is -2.62.

Consider LCTLGLIMGTFTLCWLPFFLANVLRALGGPSLVPGP, for which the enrichment score is 2.77.

Regarding EEGQASQELQTLPRVPALFRRQEEDFLLPETTVMKG, the enrichment score was 5.46.

LEVAAWFILLIFILEILLKWLSNFSVFWKSAWNVFD: the enrichment score is -1.97.

In the case of ISMGAFFLTLLSCFYVIGFLLFKNRSCRILHKALSN, the enrichment score is 2.34.

As for FIILLNIIFLVITLCKMVKHSNTLKPDSSRLENIKS, the enrichment score is 0.744.

Regarding MSLQEMFRFPMGLLLGSVLLVASAPATLEPPGCSNK, the enrichment score was determined as 2.32.

In the case of RKEPRASGSARPAMLLWPLRGWAARALRCFGPGSRG, the enrichment score is -0.0768.

For MAEAKTHWLGAALSLIPLIFLISGAEAASFQRNQLL, the enrichment score was 0.887.

On to EKLLDPRIYYINSAASFFAFIATLLYILHAFSIYYP, for which the enrichment score came out at 4.49.

With MAGPWTFTLLCGLLAATLIQATLSPTAVLILGPKVI, the enrichment score was determined as 4.15.

Turning to IARVFVIIYMALLHLWVMIVLLTYTPEMHHDQPYGK, the enrichment score amounted to 1.01.

On to RNLLLLAWYFGSLLVIFCVELACGVWTYEQELMVPV, for which the enrichment score turned out to be 0.747.
